Laboratory results from PMC5467174.
These are yes or no findings as the source states them, for the method shown. In cells and extracts the contact can be indirect. Some results given as binding are weak or reduced against the parent protein; the word gives no strength.

Sequences of proteins named here, by UniProt entry; tags and fusion partners are left off.
UniProt Q8NDV7: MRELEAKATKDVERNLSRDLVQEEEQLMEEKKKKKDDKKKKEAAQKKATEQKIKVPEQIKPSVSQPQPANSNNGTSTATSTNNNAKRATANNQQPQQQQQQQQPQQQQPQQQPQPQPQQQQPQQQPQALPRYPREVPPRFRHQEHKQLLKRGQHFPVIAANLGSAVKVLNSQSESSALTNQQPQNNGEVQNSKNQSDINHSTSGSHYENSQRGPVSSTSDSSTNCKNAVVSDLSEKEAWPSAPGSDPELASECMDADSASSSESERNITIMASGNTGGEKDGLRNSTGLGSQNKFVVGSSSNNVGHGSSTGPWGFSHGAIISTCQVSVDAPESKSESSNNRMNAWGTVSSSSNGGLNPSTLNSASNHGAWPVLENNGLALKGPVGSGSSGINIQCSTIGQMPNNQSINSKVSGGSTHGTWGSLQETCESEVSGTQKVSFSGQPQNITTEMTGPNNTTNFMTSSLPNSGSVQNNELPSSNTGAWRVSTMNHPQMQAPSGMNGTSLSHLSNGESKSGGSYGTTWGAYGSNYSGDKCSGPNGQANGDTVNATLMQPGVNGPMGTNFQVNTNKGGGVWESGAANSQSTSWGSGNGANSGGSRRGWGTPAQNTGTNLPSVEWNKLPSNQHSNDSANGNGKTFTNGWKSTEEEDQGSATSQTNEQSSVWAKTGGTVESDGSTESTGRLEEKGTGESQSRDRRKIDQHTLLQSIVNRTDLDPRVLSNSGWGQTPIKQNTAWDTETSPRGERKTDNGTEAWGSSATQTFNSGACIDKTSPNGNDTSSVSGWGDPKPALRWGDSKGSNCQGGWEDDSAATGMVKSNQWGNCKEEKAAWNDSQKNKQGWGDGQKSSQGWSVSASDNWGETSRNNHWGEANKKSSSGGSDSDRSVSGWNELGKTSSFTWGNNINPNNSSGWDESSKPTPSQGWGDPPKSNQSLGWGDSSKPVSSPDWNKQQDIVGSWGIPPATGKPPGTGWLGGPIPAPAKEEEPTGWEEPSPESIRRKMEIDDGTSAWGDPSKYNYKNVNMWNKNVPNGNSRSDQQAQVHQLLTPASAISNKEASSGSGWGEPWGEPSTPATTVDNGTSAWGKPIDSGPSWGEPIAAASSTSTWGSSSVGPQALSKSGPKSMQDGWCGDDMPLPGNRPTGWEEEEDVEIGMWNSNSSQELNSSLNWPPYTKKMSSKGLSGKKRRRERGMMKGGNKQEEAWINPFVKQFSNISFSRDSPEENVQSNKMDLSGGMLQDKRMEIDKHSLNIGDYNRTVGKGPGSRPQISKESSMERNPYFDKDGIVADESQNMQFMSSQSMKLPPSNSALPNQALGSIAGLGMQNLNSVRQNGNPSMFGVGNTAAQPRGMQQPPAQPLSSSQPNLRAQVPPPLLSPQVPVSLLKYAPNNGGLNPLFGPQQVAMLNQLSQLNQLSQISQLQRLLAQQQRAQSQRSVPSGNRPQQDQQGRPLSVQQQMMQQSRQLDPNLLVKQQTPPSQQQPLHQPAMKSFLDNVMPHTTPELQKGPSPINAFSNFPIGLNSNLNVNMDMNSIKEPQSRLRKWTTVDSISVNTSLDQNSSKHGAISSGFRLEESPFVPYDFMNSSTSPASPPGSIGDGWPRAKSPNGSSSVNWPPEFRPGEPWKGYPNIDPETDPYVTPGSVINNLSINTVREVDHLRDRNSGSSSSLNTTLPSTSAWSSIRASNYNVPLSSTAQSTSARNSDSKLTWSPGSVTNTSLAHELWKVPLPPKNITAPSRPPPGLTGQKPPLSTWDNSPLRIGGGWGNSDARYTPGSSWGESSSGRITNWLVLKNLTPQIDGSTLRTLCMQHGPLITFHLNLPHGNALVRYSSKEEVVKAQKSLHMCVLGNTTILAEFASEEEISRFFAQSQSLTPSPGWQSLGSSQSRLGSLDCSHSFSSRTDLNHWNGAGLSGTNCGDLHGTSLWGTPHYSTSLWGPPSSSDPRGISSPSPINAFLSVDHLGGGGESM

Target: TNRC6A (human (endogenous in HeLa)) (UniProt Q8NDV7)
Experiment: co-IP; endogenous proteins from HeLa 11ht lysate, without micrococcal nuclease; anti-Ago2, anti-TNRC6A, anti-GIGYF2 or control IgG (5 μg each) on beads; western blot

binding: binds weakly
B1: GIGYF2 (protein, UniProt Q6Y7W6 1-1299)
chain: MAAETQTLNFGPEWLRALSSGGSITSPPLSPALPKYKLADYRYGREEMLALFLKDNKIPSDLLDKEFLPILQEEPLPPLALVPFTEEEQRNFSMSVNSAAVLRLTGRGGGGTVVGAPRGRSSSRGRGRGRGECGFYQRSFDEVEGVFGRGGGREMHRSQSWEERGDRRFEKPGRKDVGRPNFEEGGPTSVGRKHEFIRSESENWRIFREEQNGEDEDGGWRLAGSRRDGERWRPHSPDGPRSAGWREHMERRRRFEFDFRDRDDERGYRRVRSGSGSIDDDRDSLPEWCLEDAEEEMGTFDSSGAFLSLKKVQKEPIPEEQEMDFRPVDEGEECSDSEGSHNEEAKEPDKTNKKEGEKTDRVGVEASEETPQTSSSSARPGTPSDHQSQEASQFERKDEPKTEQTEKAEEETRMENSLPAKVPSRGDEMVADVQQPLSQIPSDTASPLLILPPPVPNPSPTLRPVETPVVGAPGMGSVSTEPDDEEGLKHLEQQAEKMVAYLQDSALDDERLASKLQEHRAKGVSIPLMHEAMQKWYYKDPQGEIQGPFNNQEMAEWFQAGYFTMSLLVKRACDESFQPLGDIMKMWGRVPFSPGPAPPPHMGELDQERLTRQQELTALYQMQHLQYQQFLIQQQYAQVLAQQQKAALSSQQQQQLALLLQQFQTLKMRISDQNIIPSVTRSVSVPDTGSIWELQPTASQPTVWEGGSVWDLPLDTTTPGPALEQLQQLEKAKAAKLEQERREAEMRAKREEEERKRQEELRRQQEEILRRQQEEERKRREEEELARRKQEEALRRQREQEIALRRQREEEERQQQEEALRRLEERRREEEERRKQEELLRKQEEEAAKWAREEEEAQRRLEENRLRMEEEAARLRHEEEERKRKELEVQRQKELMRQRQQQQEALRRLQQQQQQQQLAQMKLPSSSTWGQQSNTTACQSQATLSLAEIQKLEEERERQLREEQRRQQRELMKALQQQQQQQQQKLSGWGNVSKPSGTTKSLLEIQQEEARQMQKQQQQQQQHQQPNRARNNTHSNLHTSIGNSVWGSINTGPPNQWASDLVSSIWSNADTKNSNMGFWDDAVKEVGPRNSTNKNKNNASLSKSVGVSNRQNKKVEEEEKLLKLFQGVNKAQDGFTQWCEQMLHALNTANNLDVPTFVSFLKEVESPYEVHDYIRAYLGDTSEAKEFAKQFLERRAKQKANQQRQQQQLPQQQQQQPPQQPPQQPQQQDSVWGMNHSTLHSVFQTNQSNNQQSNFEAVQSGKKKKKQKMVRADPSLLGFSVNASSERLNMGEIETLDDY
